At least one compound was matched to its structure with a doubt left.
How the values were obtained:
BRD2 = target: T1, BRD2 (Homo sapiens, UniProt P25440); assay: Degradation of BET proteins in MCF7 cells, Western blot with densitometry; format: cell-based; conditions: MCF7 cell line, 6 hours after administration; shown only in FIG. 1a, 1b, 2
T1 construct: MCF7 cells were plated in 24-well plates; endogenous in cells; host or cells: MCF7
Method: (§1) MCF7 cells were plated in 24-well plates at 1.5×10^5 cells/well in DMEM growth medium containing 10% FBS and 1% Penicillin Streptomycin, and incubated overnight at 37° C. The following day, test compound was administered to the cells using 1000× compound stock solution prepared in DMSO at various concentrations. […] Cells were then washed with PBS and protein was collected in Laemmli sample buffer (1×; VWR International). Protein was isolated from cell lysate (approximately 25 μg) by SDS-PAGE and transferred to nitrocellulose membranes. Non-specific binding was blocked by incubating with blocking buffer (5% milk in Tris-buffered saline with 0.1% Tween 20 (“TBS-T”)) at room temperature for 60 minutes. The membrane was then incubated with primary antibodies (rabbit anti-BRD2 (1:1000, Cell Signaling), mouse anti-GAPDH (1:5,000, Santa Cruz), mouse anti-BRD3 (1:500, Abcam) and rabbit anti-BRD4 (1:500, Abcam)) overnight at 4° C., followed by washing (3 times) with TBS-T, and incubation with horseradish peroxidase-conjugated […] IgG (1:5,000, Jackson Immunoresearch) or goat anti-mouse IgG (1:5,000, Jackson Immunoresearch) for 60 minutes. After washing with TBS-T, blots were developed using an enhanced chemiluminescence kit (ThermoFisher Scientific) and the bands were imaged and quantified by densitometry (Bio-Rad).

Amino acid sequences for entries named in this document (tags omitted).
UniProt P25440, whole entry: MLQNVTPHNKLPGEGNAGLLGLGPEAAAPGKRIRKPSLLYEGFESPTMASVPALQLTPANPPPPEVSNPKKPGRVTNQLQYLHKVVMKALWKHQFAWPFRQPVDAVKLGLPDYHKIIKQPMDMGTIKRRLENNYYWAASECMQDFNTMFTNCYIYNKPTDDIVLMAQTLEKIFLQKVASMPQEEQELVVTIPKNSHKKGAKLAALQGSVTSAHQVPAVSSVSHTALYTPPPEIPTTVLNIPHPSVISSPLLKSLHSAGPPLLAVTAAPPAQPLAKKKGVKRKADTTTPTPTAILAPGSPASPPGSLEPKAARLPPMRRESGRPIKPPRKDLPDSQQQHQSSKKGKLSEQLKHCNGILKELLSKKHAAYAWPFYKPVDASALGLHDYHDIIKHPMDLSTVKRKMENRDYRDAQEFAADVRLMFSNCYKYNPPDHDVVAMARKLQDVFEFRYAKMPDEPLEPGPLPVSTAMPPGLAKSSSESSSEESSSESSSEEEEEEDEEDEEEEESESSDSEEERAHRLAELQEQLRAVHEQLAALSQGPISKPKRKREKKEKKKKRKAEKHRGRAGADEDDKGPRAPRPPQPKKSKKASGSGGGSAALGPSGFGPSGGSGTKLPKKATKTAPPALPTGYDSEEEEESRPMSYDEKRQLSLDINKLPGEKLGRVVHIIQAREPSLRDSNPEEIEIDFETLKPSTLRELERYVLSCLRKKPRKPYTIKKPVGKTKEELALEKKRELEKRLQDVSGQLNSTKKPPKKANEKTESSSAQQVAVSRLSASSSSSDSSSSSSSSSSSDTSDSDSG
UniProt Q15059, whole entry: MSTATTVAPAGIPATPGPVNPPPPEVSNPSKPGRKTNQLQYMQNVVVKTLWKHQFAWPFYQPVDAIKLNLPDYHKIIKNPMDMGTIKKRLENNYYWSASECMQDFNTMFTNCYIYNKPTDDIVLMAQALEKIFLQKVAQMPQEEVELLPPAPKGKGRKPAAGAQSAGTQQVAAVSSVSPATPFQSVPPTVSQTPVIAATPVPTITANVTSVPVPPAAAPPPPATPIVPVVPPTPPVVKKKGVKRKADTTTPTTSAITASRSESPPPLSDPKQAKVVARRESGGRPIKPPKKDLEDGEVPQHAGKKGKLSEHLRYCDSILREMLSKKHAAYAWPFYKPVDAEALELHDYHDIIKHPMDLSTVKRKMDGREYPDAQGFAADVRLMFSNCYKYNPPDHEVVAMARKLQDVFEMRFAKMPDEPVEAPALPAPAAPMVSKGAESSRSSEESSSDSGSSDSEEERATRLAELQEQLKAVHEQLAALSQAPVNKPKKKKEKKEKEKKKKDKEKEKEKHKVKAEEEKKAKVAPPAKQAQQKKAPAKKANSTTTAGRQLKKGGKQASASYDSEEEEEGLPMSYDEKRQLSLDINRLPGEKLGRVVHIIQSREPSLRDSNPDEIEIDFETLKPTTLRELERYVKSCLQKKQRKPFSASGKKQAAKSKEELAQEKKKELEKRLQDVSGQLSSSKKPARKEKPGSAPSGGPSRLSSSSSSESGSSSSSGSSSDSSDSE

BRD3 = target: T2, BRD3 (Homo sapiens, UniProt Q15059); assay: as above; format: cell-based; conditions: MCF7 cell line, 6 hours after administration; shown only in FIG. 1a, 1b, 2
T2 construct: endogenous in cells; host or cells: MCF7
Method: as §1

Structure (SMILES)	degradative activity towards BRD2 (BRD2)	degradative activity towards BRD3 (BRD3)
Cc1sc2c(c1C)C(c1ccc(Cl)cc1)=N[C@@H](CC(=O)NCCCCCCC(=O)Nc1ccc(CC(=O)NC3CCC(=O)NC3=O)cc1)c1nnc(C)n1-2 (stereo partly drawn) [Compound 222174, 7-(2-((S)-4-(4-chlorophenyl)-2,3,9-trimethyl-6H-thieno[3,2-f][1,2,4]triazolo[4,3-a][1,4]diazepin-6-yl)acetamido)-N-(4-(2-((2,6-dioxopiperidin-3-yl)amino)-2-oxoethyl)phenyl)heptanamide]	degradative activity	degradative activity
Cc1sc2c(c1C)C(c1ccc(Cl)cc1)=N[C@@H](CC(=O)NCCCCCCC(=O)Nc1cccc(CC(=O)NC3CCC(=O)NC3=O)c1)c1nnc(C)n1-2 (stereo partly drawn) [Compound 222175, 7-(2-((S)-4-(4-chlorophenyl)-2,3,9-trimethyl-6H-thieno[3,2-f][1,2,4]triazolo[4,3-a][1,4]diazepin-6-yl)acetamido)-N-(3-(2-((2,6-dioxopiperidin-3-yl)amino)-2-oxoethyl)phenyl)heptanamide]	degradative activity	degradative activity
